According to patent US10526611:
These are yes or no findings as the source states them, for the method shown. Some entries that bind do so weakly or less than the wild type. Tags and fused reporters may be left off the sequences shown.

The chains behind the UniProt entries cited, without tags or fusion partners.
UniProt O80480: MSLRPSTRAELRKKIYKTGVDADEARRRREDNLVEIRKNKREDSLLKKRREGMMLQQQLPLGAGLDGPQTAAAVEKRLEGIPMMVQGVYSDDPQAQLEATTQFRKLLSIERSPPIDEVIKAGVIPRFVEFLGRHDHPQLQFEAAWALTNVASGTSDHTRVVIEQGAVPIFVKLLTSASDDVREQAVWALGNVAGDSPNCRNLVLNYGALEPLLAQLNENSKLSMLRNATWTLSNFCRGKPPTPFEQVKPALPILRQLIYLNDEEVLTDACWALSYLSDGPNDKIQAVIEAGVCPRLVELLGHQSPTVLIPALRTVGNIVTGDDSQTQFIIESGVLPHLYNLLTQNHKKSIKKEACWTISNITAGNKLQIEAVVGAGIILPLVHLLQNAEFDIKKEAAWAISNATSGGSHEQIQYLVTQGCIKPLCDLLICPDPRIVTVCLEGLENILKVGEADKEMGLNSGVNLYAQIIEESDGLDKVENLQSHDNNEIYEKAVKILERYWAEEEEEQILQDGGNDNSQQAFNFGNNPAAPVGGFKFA
UniProt Q96321: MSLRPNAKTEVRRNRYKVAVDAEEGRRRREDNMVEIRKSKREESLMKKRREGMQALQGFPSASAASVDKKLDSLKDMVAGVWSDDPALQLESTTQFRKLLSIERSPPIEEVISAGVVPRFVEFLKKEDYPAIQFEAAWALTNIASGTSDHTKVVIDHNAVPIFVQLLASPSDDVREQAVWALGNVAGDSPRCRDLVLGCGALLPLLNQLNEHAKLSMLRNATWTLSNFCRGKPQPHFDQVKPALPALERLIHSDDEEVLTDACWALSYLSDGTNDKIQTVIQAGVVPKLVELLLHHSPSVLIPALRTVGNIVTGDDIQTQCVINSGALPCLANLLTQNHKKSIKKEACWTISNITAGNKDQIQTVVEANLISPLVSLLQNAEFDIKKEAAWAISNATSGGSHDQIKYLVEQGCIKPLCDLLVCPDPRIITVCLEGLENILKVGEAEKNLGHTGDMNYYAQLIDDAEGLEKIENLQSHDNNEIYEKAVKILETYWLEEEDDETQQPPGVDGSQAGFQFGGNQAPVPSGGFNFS

Columns and labels:
[1] = target: IMPa-4 (plant importin α) (UniProt O80480); test: BiFC in tobacco BY-2 cells
[2] = target: IMPa-1 (plant importin α) (UniProt Q96321); test: BiFC in tobacco BY-2 cells

binding [1]: binds | binding [2]: binds
B1: LSH10 tagged with the N-terminal fragment of the autofluorescent protein Venus (LSH10-nVenus) (protein, not shown: large carriers)
chain: MSSPRERGKSLMESSGSEPPVTPSRYESQKRRDWNTFGQYLKNQRPPVPMSHCSCNHVLDFLRYLDQFGKTKVHVPGCMFYGQPEPPAPCTCPLRQAWGSLDALIGRLRAAYEENGGPPETNPFASGAIRVYLREVRECQAKARGIPYKKKKKKKPTPEMGGGREDSSSSSSSFSFS
